Source: PMC7819943, “Rice protein-binding microarrays: a tool to detect cis-acting elements near promoter regions in rice”
This is one part of the list.

What follows are sequences tested against T1, OsSMF1 (Oryza sativa, UniProt Q6ZLB0 1-436) (assay: protein-binding microarray (RPBM); PBS, 2% BSA, 51.3 ng/ul salmon testes DNA, 50 uM zinc acetate, 200 nM TF, 25 C, 1 h; high values mean tight binding). Details: protein: recombinant; tags: N-terminal polyhistidine and DsRed monomer fusion (pET32a); chain copies: 2; label: CyDye5-dUTP incorporated in the synthesized complementary strand; 3' TTTTT single-stranded linker to array surface; dsDNA, one strand shown.
T1 sequence: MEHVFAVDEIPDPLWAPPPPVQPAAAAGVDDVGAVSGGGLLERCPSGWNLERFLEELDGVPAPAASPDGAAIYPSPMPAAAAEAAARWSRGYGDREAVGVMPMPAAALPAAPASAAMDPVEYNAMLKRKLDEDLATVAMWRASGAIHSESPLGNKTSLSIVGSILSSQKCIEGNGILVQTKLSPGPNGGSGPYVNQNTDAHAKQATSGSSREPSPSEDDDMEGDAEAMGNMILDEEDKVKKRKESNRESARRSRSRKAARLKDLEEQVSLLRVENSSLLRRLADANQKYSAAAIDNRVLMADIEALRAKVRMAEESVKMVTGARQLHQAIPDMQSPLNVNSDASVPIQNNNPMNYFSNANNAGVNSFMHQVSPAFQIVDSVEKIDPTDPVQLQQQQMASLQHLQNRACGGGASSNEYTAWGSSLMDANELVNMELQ
How it was run: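 Transcription factors, each fused N-terminally to a polyhistidine tag and DsRed, were expressed in E. coli BL21-CodonPlus and purified on Ni–NTA. A custom Agilent array was made double-stranded by primer extension with Cy5-dUTP and blocked with 2% BSA. It was incubated with 200 nM protein in PBS, 2% BSA, salmon testes DNA and 50 µM zinc acetate at 25 °C for 1 h, then washed. The binding signal is per-feature fluorescence intensity (arbitrary units) read on an Axon 4000B scanner.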

Row | Sequence | binding signal
1 | TCTAGTTTCTTCGATCTGACTAGATCTCAACTCTGAATAACGGAGTCACCTAGTGCAG | 4080 fluorescence intensity (a.u.)
2 | ATGGAGTCTGATGCTGAAGAAATCAATCATCAGTACTAGTCGGAGTCACCTAGTGCAG | 3340 fluorescence intensity (a.u.)
3 | CCCTCACCTGGCCCACCTGTCAGCCACGTCGGGGTATCCGCGGAGTCACCTAGTGCAG | 8680 fluorescence intensity (a.u.)
4 | AAGATTTGCTGGGAGGGTGGGGTGGGGATTAGTCCCTAAACGGAGTCACCTAGTGCAG | 4630 fluorescence intensity (a.u.)
5 | CACTTGGTTGCTGTTCATCATCGATCATCATTTGGCAATGCGGAGTCACCTAGTGCAG | 3870 fluorescence intensity (a.u.)
6 | GAGTCGGGGTGGGCTGGCGGTCGAGATGACGCAAGCGACGCGGAGTCACCTAGTGCAG | 24800 fluorescence intensity (a.u.)
7 | TTGTTTGTGACTGACACTGGTGGAGATGACGGCTGGAATCCGGAGTCACCTAGTGCAG | 3230 fluorescence intensity (a.u.)
8 | AGCTTCCAGCCACCGGCCACCGCCATCATCATCCTCGCGACGGAGTCACCTAGTGCAG | 3370 fluorescence intensity (a.u.)
9 | AAGCTAAAGGAGGAAGCAATCCAGATCACCTGATGGCACACGGAGTCACCTAGTGCAG | 3520 fluorescence intensity (a.u.)
10 | GAGTAGGTCTCATGAATCATCCCTTGCGCGTCACTAGTTACGGAGTCACCTAGTGCAG | 4860 fluorescence intensity (a.u.)
11 | CCTTAATTACATTGTATATAGTGATGTATGATTTATTTTACGGAGTCACCTAGTGCAG | 3280 fluorescence intensity (a.u.)
12 | AATTAATTGGAAAGTTCATTTGGGCCACGTGCCAAATACACGGAGTCACCTAGTGCAG | 4140 fluorescence intensity (a.u.)
13 | GCATCACACGCCACTCTTACACGCAGGAACACCTAGGTTGCGGAGTCACCTAGTGCAG | 3900 fluorescence intensity (a.u.)
14 | CATTTCATCTACCTCTTCTTGCATCAGCAGCAGTGGTCAGCGGAGTCACCTAGTGCAG | 3480 fluorescence intensity (a.u.)
15 | TTGCCTCCACGCATGATGTCATAATTGTTGTCAAACATGACGGAGTCACCTAGTGCAG | 7190 fluorescence intensity (a.u.)
16 | AACTTAAAGACACGGAAAGAAAGAAAGCTGACCTTAGCAGCGGAGTCACCTAGTGCAG | 23300 fluorescence intensity (a.u.)
17 | TCCTCACCTACGGCGCCCGCGACATCGTCTTCGCGCCGTTCGGAGTCACCTAGTGCAG | 3280 fluorescence intensity (a.u.)
18 | TCATCGCCATCTCGAATTCTCGATGGATCGATCGTTAATTCGGAGTCACCTAGTGCAG | 32900 fluorescence intensity (a.u.)
19 | TTAATCCGCCATTAGTACATGTGGGTTACTATAGCACTTACGGAGTCACCTAGTGCAG | 19100 fluorescence intensity (a.u.)
20 | TATGCAAAATGATATATCGGACCCACGTCACGATGGAGGACGGAGTCACCTAGTGCAG | 6810 fluorescence intensity (a.u.)
21 | TTGTAAGTACACTAGGTGAAACATCTTTTGTGGAATAAAGCGGAGTCACCTAGTGCAG | 19900 fluorescence intensity (a.u.)

Looked up one by one from the entries so far (2):
Row | Sequence | binding signal
1 | TCTAGTTTCTTCGATCTGACTAGATCTCAACTCTGAATAACGGAGTCACCTAGTGCAG | 4080 fluorescence intensity (a.u.)
2 | ATGGAGTCTGATGCTGAAGAAATCAATCATCAGTACTAGTCGGAGTCACCTAGTGCAG | 3340 fluorescence intensity (a.u.)

(further entries)

Row | Sequence | binding signal
22 | TTTATAATTTTCTTATGGTATTTTCTACTAGTATCCGTTGCGGAGTCACCTAGTGCAG | 29400 fluorescence intensity (a.u.)
23 | ATTGGGAGGGAGGTAATACATGGAATTAGGTTTCTTGTGGCGGAGTCACCTAGTGCAG | 3280 fluorescence intensity (a.u.)
24 | CAACGTATTTGTCTTATAAGACAAATCTACACAAACAATTCGGAGTCACCTAGTGCAG | 3630 fluorescence intensity (a.u.)
25 | GGAGGGGTGGAAGGAGGGTGGTAGGAGGAATTAGATGTGTCGGAGTCACCTAGTGCAG | 3230 fluorescence intensity (a.u.)
26 | GTTCCCCTCGTGCCGCCCGCCTCCGCCGTCGCGTCCCCGCCGGAGTCACCTAGTGCAG | 3710 fluorescence intensity (a.u.)
27 | GGTGTCACCTCCTCTATCTTAGTAACTTGGCCAACTCTTCCGGAGTCACCTAGTGCAG | 15700 fluorescence intensity (a.u.)
28 | CACCGCACGTCACCCGCGAAGCTCTCATGGCCTCACACACCGGAGTCACCTAGTGCAG | 4370 fluorescence intensity (a.u.)
29 | TGTGCCTTGTCGCCGTGATTAGCACTTTAAACAAGTGTTCCGGAGTCACCTAGTGCAG | 3160 fluorescence intensity (a.u.)
30 | GAAATTAGAAACACATGGATGATAATGTTCGATCCTTGAACGGAGTCACCTAGTGCAG | 30100 fluorescence intensity (a.u.)
31 | AGAGGGAAAGCACGCTACTGCTACTCGTCACCGCAGCGCACGGAGTCACCTAGTGCAG | 3300 fluorescence intensity (a.u.)
32 | GAGCGAGAGGAGGGATATATACACGTGTTAACAATCCAAGCGGAGTCACCTAGTGCAG | 5780 fluorescence intensity (a.u.)
33 | CTAGCGACGAAAGCGACTCGTCAGAGGGCCACGTGCAGCTCGGAGTCACCTAGTGCAG | 3710 fluorescence intensity (a.u.)
34 | GTTTTCTCTTAGTTTGTCCATCTTTGTCATTTTGCGCTGTCGGAGTCACCTAGTGCAG | 3990 fluorescence intensity (a.u.)
35 | CTCGTTCACTTGGGTGCTAATTAAACATCAAATCTAAGCTCGGAGTCACCTAGTGCAG | 16500 fluorescence intensity (a.u.)
36 | GTCGCCATGACGGAGTCGCGCCGCCCGCCGTCCGGCTGCGCGGAGTCACCTAGTGCAG | 3280 fluorescence intensity (a.u.)
37 | TCTCCTGCTCACGTGATTCATACTCTCCCTACTCCCCTCTCGGAGTCACCTAGTGCAG | 3450 fluorescence intensity (a.u.)
38 | CTCGTGCATGCATTTGTGCCCCAGCACTGTCTTCGAAGGACGGAGTCACCTAGTGCAG | 4160 fluorescence intensity (a.u.)
39 | TGCAATAATTTGGACTCATGGAGTTTGAAGATGGGCTCTGCGGAGTCACCTAGTGCAG | 3310 fluorescence intensity (a.u.)
40 | TGGCAGTGTCCTTTGCCAGCTTGCACTGATAGTTGCACTTCGGAGTCACCTAGTGCAG | 3170 fluorescence intensity (a.u.)
41 | ATGATCCTGTAGTGGATCCGTGAGACAGGTGTCAACCTTTCGGAGTCACCTAGTGCAG | 3260 fluorescence intensity (a.u.)
42 | TTGCCATCTCATTTCTTGCATCATCTCCTCCCAATTCCAACGGAGTCACCTAGTGCAG | 3320 fluorescence intensity (a.u.)
